From the supplement of paper PMC10338343
± gives the standard deviation. Only a part is listed here, and it is no random draw. Many entries were measured with a wide error.

Assays:
[1] = tested on: MILI (PIWIL2) piRISC loaded with piRNA #1 (26 nt); assay: pre-steady-state target cleavage rate (min^-1); higher = faster piRNA-guided slicing of the target; settings: guide: piRNA #1 5'p-UGAGGUAGUAGGUUGUAUAGUAUCCA; auxiliary factor: 500 nM mouse GTSF1;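 further: 1 nM active piRISC with 0.1 nM target library at 33 °C single turnover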
In short: (§1)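 A transcribed, DNA-blocked target RNA library […] was incubated at 33 °C for 0–8 or 0–960 min with 1 nM active affinity-purified piRISC carrying one synthetic guide, in HEPES–potassium acetate buffer with or without 500 nM GTSF1 partner protein. Uncleaved targets were then sequenced and normalised to depth and to weakly complementary targets. Data from three trials were pooled, with k3 capped at 0.0001 min^-1, and a burst-and-steady-state fit yielded the pre-steady-state cleavage rate.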

[2] = tested on: EfPiwi piRISC loaded with piRNA #1 (26 nt); assay: pre-steady-state target cleavage rate (min^-1); guide: piRNA #1 5'p-UGAGGUAGUAGGUUGUAUAGUAUCCA; MIWI and MILI are mouse PIWI proteins and EfPiwi is from a freshwater sponge; tags in brackets are library labels; higher = faster piRNA-guided slicing of the target; settings: auxiliary factor: 500 nM Ephydatia muelleri Gtsf1
In short: as §1

| Sequence | pre-steady-state target cleavage rate [1] | pre-steady-state target cleavage rate [2] |
| --- | --- | --- |
| GGAGAGGAUACUAUAGAACCUAGUACCUCA | 0.000843 ± 0.0064 | 0.00135 ± 0.0026 |
| GGAGACGAUACUAUUGAACCUACUACCUCA | 0.157 ± 0.016 | 0.00145 ± 0.0035 |
| GGAGACCUAUGAUUACAACCUCACUACCUCA | 0.00291 ± 0.0027 | 0.000756 ± 0.0078 |
| GGAGACCUAACUAUACAACCUUCUACGUCA | 0.00093 ± 0.016 | 0.00333 ± 0.0039 |
| GGAGACCUAUGAUUACUUGCUACUACCUCA | 0.000215 ± 0.015 | 0.000758 ± 0.0071 |
| GGAGUGGAAACUAUACAACCAACUACCUCA | 0.0025 ± 0.006 | 0.0049 ± 0.0032 |
| GGAGACCUAUGAUAUGUGCCUACUACCUCA | < 0.0001 | 0.000575 ± 0.0083 |
| GGAGACCAUACAAUACAAGCUACUACCUCA | 0.205 ± 0.016 | 0.00223 ± 0.0036 |
| GGAGUCGAUACUAUACAACCUUCUACCUCA | 0.00775 ± 0.0022 | 0.00622 ± 0.0028 |
| GGAGACCUAUGAUAAGAACCUUCUACCUCA | 0.000257 ± 0.012 | 0.00014 ± 0.017 |
| GGAGACCUAUCUAUACAACGUAGUACCUCA | 0.00772 ± 0.0031 | 0.000874 ± 0.0066 |
| GGAGACCUUACUAUACAACCUUCUAGCUCA | 0.00187 ± 0.0035 | 0.00214 ± 0.0053 |
| GGAGACGAUACAAUACAAGCUACUACCUCA | 0.236 ± 0.017 | 0.00185 ± 0.0026 |
| GGAGUGGAUACAAUACAUCCUACUACCUCA | 0.256 ± 0.016 | 0.00574 ± 0.0025 |
| GGAGACCUUACUAUACAACCAACUACCUGA | 0.00286 ± 0.0032 | 0.00356 ± 0.004 |
| GGAGUGGUUACUAUACAACCAACUACCUCA | 0.00796 ± 0.0019 | 0.0036 ± 0.0014 |
| GGAGACCUAUGAUAUGUUGCUAGUAGCUCA | 0.000262 ± 0.014 | 0.000257 ± 0.015 |

| Sequence | pre-steady-state target cleavage rate [1] | pre-steady-state target cleavage rate [2] |
| --- | --- | --- |
| GGAGACCUUACUAUAGAACCUUCUACCUCA | 0.0024 ± 0.0027 | 0.00177 ± 0.0043 |
| GGAGACCUAUCUAUACAACCUACUAACCUCA | 0.143 ± 0.014 | 0.00178 ± 0.0052 |
| GGAGACCUAACUAUACAACCUACUAGGAGA [g6:g21:cont:t1A] | 0.00403 ± 0.0045 | 0.00242 ± 0.0058 |
| GGAGACGAUACUAUAGAACCUACAACCUCA | 0.0115 ± 0.0039 | 0.00192 ± 0.0022 |
| GGAGACCUUACUAUACAACCUUCUACGUCA | 0.00198 ± 0.0044 | 0.00265 ± 0.003 |
| GGAGACCUAUCUAUAGAACCUACUUCCUCA | 0.00536 ± 0.0024 | 0.00116 ± 0.0058 |
| GGAGACGAUACUAGACAACCUACUACCUCA | 0.171 ± 0.013 | 0.00452 ± 0.0029 |
| GGAGACGAUAGUAUACAAGCUACUACCUCA | 0.176 ± 0.016 | 0.0022 ± 0.0027 |
| GGAGACCAUACUAUAGAACCAACUACCUCA | 0.00109 ± 0.0069 | 0.000572 ± 0.0087 |
| GGAGACCUUACUAUACAACCUACUUCGUCA | 0.0614 ± 0.015 | 0.00408 ± 0.0044 |
| GGAGACCUAACUAUACAACCUACAUGGAGA [g8:g21:cont:t1A] | 0.00188 ± 0.0068 | 0.000297 ± 0.0098 |
| GGAGACCUUAGUAUACAUCCUACUACCUCA | 0.126 ± 0.018 | 0.0029 ± 0.0036 |
| GGAGACCUAUGAAUAGAACCUACUAGCUCA | 0.000213 ± 0.013 | < 0.0001 |
| GGAGACCUAACUAUACAACCUACUACCAUCA | 0.261 ± 0.038 | 0.00258 ± 0.0034 |
| GGAGACAAUACUAUACAACCUACUACCUCA | 0.253 ± 0.021 | 0.0606 ± 0.023 |
| GGAGACCUAUGUAUACAACCUAGUACCACA | 0.00245 ± 0.0032 | 0.00174 ± 0.0049 |

Part of the list above in a different format.
Sequence | pre-steady-state target cleavage rate [1] | pre-steady-state target cleavage rate [2]
GGAGACGAUACUAGACAACCUACUACCUCA | 0.171 ± 0.013 | 0.00452 ± 0.0029
GGAGACGAUAGUAUACAAGCUACUACCUCA | 0.176 ± 0.016 | 0.0022 ± 0.0027
